# The structures given here were assigned with low confidence; some may be wrong.
# The chains behind the UniProt entries cited, without tags or fusion partners.
# UniProt Q8NER1, whole entry: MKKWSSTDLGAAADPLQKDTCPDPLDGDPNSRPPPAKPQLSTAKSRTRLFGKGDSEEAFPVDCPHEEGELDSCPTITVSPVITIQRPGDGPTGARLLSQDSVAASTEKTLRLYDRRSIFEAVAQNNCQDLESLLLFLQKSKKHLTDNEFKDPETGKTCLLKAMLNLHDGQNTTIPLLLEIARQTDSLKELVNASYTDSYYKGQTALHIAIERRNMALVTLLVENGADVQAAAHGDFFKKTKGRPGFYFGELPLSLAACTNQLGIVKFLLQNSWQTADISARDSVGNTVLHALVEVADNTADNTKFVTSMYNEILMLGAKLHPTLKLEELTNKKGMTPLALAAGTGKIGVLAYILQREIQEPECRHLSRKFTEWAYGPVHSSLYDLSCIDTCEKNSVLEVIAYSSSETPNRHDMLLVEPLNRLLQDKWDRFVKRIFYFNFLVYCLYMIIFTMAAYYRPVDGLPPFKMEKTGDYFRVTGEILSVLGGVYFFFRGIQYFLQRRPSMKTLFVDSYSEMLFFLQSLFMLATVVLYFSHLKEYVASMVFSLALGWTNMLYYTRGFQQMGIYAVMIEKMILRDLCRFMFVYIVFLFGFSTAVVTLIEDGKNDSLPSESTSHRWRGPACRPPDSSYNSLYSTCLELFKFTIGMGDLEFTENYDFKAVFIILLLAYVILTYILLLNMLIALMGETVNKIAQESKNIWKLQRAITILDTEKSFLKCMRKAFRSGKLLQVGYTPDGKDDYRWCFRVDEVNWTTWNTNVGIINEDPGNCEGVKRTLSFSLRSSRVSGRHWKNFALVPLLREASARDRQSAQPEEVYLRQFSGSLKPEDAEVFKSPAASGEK
# Molecular target: human VR1 vanilloid receptors (Homo sapiens, UniProt Q8NER1)
# Test: [3H] RTX binding assay, hVR1 membranes from transfected HEK293 cells
# Conditions: for Ki: read-out: Receptor binding Ki, human VR1; for Receptor binding % Inhibition @ 1 μM: human VR1, 1 μM compound
Ki,Receptor binding % Inhibition @ 1 μM,SMILES
211 nM,–,CCCCCN(C)c1ccc(CNC(=O)Nc2cnc3ccccc3c2)cc1
–,37%,O=C(NCCc1ccc(Cl)c(Cl)c1)Nc1cnc2ccccc2c1
786 nM,–,O=C(NCc1ccc(C(F)(F)F)cc1)Nc1cnc2ccccc2c1
–,23%,O=C(NCc1ccc(Cl)c(Cl)c1)Nc1cnc2ccccc2c1
–,1%,O=C(Nc1cccc(C(F)(F)F)c1)Nc1cnc2ccccc2c1
